From article PMC6744468
Results are given in words; binding and its absence hold for the method and conditions named. In cells and extracts the contact can be indirect. Some binding calls cover weakened binding; strength is not graded here.

Chains of the proteins cited; added tags and fusions are not shown.
UniProt O95166: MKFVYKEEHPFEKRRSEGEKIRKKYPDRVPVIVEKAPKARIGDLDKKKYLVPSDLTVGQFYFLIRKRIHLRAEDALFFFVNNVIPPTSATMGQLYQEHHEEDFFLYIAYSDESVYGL
UniProt P60520: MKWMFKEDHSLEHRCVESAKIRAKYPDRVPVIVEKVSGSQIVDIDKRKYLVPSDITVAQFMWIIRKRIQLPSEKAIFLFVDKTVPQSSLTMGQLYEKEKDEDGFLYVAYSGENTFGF
UniProt O15078: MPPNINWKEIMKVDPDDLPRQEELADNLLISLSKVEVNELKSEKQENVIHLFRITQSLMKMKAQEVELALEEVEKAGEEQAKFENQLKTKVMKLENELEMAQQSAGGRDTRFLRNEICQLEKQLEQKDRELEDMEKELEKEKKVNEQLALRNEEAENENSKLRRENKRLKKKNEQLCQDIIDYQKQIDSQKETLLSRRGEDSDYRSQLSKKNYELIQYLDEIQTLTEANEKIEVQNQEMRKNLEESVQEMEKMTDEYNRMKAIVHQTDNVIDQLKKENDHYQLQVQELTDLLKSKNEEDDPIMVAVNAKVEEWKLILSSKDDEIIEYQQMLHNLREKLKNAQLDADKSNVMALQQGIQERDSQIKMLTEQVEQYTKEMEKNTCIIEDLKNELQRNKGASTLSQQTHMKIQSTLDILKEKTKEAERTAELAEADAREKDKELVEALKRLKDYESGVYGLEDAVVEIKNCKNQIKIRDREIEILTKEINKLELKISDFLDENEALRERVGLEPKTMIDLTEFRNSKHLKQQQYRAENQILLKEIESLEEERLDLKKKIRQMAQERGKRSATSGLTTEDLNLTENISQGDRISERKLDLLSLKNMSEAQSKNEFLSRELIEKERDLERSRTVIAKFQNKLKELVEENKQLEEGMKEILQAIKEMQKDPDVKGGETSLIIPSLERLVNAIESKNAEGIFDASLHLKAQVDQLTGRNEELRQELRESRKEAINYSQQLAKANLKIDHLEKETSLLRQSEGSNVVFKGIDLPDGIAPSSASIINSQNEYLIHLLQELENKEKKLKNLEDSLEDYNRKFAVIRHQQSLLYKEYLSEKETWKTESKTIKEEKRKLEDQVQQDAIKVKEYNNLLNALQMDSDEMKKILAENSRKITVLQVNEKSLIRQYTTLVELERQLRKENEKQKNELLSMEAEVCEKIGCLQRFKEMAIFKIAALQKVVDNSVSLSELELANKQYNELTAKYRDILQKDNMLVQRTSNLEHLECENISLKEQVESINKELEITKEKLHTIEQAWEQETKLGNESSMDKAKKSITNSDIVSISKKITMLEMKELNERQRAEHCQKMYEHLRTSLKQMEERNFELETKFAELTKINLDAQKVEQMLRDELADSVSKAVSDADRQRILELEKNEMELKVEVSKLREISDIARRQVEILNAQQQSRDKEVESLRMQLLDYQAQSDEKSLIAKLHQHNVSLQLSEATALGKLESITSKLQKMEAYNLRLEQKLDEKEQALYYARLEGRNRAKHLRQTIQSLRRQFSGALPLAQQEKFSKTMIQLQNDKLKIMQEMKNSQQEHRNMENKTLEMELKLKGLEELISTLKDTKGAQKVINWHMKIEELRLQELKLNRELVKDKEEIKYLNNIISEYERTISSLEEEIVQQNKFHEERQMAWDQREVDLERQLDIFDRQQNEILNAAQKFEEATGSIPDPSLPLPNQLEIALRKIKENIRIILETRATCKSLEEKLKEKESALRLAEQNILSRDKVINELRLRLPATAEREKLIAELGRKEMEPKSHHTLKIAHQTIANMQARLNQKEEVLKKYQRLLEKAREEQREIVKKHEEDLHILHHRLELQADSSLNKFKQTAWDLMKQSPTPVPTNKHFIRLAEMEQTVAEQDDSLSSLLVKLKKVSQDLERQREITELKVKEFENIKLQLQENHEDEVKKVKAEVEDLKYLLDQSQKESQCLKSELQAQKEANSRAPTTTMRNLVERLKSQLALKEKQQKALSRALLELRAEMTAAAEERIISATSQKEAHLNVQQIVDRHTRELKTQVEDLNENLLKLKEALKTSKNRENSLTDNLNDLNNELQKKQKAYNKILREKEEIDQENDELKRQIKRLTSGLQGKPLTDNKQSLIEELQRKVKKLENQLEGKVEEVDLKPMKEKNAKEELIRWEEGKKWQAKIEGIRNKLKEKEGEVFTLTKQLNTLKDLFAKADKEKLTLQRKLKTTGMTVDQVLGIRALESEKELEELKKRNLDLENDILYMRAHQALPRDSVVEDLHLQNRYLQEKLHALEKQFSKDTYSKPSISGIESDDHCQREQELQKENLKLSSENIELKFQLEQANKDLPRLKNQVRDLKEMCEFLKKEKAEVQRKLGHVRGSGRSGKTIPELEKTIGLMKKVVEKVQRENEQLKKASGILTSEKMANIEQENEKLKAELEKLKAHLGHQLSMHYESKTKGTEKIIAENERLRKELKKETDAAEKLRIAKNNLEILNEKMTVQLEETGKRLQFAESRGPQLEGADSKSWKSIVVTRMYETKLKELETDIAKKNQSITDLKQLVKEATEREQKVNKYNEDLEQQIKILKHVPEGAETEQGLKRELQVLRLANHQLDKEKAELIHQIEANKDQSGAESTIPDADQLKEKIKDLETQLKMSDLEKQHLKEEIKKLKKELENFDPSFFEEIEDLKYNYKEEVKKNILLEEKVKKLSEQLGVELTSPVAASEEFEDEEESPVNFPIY
UniProt Q15154: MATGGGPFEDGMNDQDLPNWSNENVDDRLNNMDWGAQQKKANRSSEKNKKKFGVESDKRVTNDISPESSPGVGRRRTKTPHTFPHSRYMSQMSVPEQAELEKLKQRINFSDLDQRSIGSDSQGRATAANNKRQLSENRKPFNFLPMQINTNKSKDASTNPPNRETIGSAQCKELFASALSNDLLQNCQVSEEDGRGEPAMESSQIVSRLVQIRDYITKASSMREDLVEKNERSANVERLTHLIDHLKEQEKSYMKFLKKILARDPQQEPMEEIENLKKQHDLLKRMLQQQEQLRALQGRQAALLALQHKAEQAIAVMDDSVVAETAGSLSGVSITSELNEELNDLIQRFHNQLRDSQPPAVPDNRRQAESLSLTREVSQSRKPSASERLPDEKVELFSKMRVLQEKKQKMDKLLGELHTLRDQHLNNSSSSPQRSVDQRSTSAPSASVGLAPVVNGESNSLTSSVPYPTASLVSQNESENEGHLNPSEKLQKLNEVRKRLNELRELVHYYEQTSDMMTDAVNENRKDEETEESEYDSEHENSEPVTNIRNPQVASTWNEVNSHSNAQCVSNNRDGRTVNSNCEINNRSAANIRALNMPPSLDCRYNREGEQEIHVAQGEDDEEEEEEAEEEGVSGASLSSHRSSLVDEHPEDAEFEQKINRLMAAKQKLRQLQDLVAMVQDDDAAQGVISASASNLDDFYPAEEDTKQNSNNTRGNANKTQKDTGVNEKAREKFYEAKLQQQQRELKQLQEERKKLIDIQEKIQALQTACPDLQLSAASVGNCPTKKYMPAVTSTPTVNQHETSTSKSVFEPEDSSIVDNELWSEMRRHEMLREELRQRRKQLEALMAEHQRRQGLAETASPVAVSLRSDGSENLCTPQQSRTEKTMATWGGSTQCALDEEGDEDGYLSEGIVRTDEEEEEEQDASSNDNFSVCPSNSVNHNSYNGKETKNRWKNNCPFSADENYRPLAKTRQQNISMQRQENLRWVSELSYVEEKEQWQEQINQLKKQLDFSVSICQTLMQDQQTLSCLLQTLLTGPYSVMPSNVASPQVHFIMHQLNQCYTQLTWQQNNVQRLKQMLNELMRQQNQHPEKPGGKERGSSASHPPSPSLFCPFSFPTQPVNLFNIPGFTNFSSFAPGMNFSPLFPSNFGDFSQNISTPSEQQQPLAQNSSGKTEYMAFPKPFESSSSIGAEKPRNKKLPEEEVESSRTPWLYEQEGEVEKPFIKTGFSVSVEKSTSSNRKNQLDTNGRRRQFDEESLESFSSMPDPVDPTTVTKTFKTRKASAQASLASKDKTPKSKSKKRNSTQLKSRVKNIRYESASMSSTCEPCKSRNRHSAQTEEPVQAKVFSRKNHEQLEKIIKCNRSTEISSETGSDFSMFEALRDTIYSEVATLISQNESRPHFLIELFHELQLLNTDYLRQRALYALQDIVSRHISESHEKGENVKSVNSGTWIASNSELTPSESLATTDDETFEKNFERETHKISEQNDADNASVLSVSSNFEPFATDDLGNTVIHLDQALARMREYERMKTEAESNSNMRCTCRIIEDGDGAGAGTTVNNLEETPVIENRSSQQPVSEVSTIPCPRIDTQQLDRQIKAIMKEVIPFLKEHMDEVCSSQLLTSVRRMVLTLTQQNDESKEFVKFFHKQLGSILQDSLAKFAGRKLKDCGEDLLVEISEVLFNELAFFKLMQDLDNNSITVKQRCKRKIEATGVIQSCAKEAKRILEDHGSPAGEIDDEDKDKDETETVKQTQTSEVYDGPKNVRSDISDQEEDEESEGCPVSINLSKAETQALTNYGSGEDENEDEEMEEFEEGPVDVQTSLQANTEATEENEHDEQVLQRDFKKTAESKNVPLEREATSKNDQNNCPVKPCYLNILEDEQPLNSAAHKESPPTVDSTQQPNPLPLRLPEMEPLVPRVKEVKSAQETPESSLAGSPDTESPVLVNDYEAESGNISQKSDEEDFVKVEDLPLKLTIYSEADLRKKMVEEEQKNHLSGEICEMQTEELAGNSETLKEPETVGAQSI

Assays:
[1] = molecular target: GFP-GABARAP (human) (UniProt O95166); assay: co-IP; GFP-trap precipitation of lysates of HEK293 cells transfected with GFP-tagged constructs (alone or with HA-PCM1 variants); immunoblot for endogenous proteins or HA
[2] = molecular target: GFP-GABARAPL2 (human) (UniProt P60520); assay: as above
[3] = molecular target: GFP-GABARAPL2 (human) (UniProt P60520); assay: co-IP; GFP-trap MA beads on lysates of doxycycline-induced stable MCF7 cells, standard IP lysis buffer, 1 h at 4 °C, 5 washes, immunoblot for endogenous proteins
[4] = molecular target: GFP-GABARAPL2 (human) (UniProt P60520); assay: co-IP; GFP-trap precipitation from U2OS cells transiently transfected with inducible GFP-tagged constructs and treated with control or CEP131 siRNA; immunoblot for endogenous PCM1 and CEP131
[5] = molecular target: GFP-GABARAPL2 (human) (UniProt P60520); assay: co-IP; GFP-trap beads split after 1 h with lysate and washed 2 x 5 min in standard IP lysis buffer, or the buffer with 500 mM NaCl, 500 mM NaCl + 1 M urea or 500 mM NaCl + 2 M urea; cell line not stated

**Q.** What does the source list for “CEP290, endogenous (from UniProt O15078 1-2479)”?
**A.** binding [1]: binds; binding [2]: binds

**Q.** With HA-PCM1-wt (from UniProt Q15154 1-2024) as the substance, how does the binding [2] read?
**A.** binds

**Q.** How did the binding [3] turn out when “pericentriolar material 1 (PCM1), endogenous (from UniProt Q15154 1-2024)” was run?
**A.** binds

**Q.** What about the binding [4] of the same substance?
**A.** binds

**Q.** What about the binding [5] of the same substance?
**A.** binds
